Laboratory results: PubChem BioAssay AID651804 (National Center for Advancing Translational Sciences (NCATS), 2012)
The campaign covered roughly 1,200 compounds. About 20 (2%) were called active. Another 23% or so got no clear call; they are omitted. Calls come from the whole dose curve; as a rule, active = well fitted inhibition curve with a large enough effect; inconclusive = small, poorly fitted or top-dose-only effect; inactive = no such curve, though single readings can be large or run the other way. The list shows a part of the results.

Amino acid sequences for entries named in this document (tags omitted). A change or cut given only in a name is not applied to a line headed by its entry.
UniProt P11308: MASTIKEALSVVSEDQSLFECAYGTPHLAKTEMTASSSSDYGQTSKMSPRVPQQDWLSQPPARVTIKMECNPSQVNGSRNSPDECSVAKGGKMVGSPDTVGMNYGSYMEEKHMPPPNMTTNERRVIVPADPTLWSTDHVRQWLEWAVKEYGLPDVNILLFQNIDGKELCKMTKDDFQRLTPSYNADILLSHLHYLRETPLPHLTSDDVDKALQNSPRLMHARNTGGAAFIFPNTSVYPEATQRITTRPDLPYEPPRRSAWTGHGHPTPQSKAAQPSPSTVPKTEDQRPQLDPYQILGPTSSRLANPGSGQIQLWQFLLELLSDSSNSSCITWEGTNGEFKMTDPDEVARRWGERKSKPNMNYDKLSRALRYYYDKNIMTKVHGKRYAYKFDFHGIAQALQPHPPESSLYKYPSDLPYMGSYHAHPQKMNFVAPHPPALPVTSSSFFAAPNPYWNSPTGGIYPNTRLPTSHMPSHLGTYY

Molecular target: Transcriptional regulator ERG (Homo sapiens) (UniProt P11308)
Assay: qHTS for Small Molecule Inhibitors of the ERG Ets/DNA interaction: HTRF assay against cherry picks
Settings: His-ERG Ets domain with biotin-DNA; series mostly up to 154 µM; activity change, negative = inhibition: at the top concentration
Summary of the method: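 Compounds were incubated 10 min at RT with ERG Ets domain and biotinylated DNA (each added as 200 nM solution) in pH 7.5 Tris/KCl/EDTA/DTT buffer. Binding was read as FRET (ex 320, em 615 and 665 nm) between anti-His donor and streptavidin acceptor.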
Potency is the fitted concentration of half-maximal effect.

Row | Structure (SMILES) | activity change, negative = inhibition | Potency
1 | CCOC(=O)C1CCN(C(=O)c2cccc(S(=O)(=O)N3CCCc4ccccc43)c2)CC1 | inactive: -19.9% | –
2 | CCCn1c(SCC(=O)c2cc(C)n(-c3ccc4c(c3)OCO4)c2C)n[nH]c1=O | inactive: -21.4% | –
3 | CCOc1cccc(CNc2ccc(O)cc2)c1OCc1ccc(Cl)cc1Cl | inactive: -28.8% | –
4 | Cc1cc2cc(CNC(=O)C(C)Oc3ccccc3)ccc2n1C (centres undefined) | inactive: -9.92% | –
5 | N#CCCN(C(=S)NC(=O)C1CCCCC1)c1ccccc1F | inactive: -20.2% | –
6 | CC(NC(=O)c1nn(C)c2c1CS(=O)(=O)c1ccccc1-2)c1ccccc1 (centres undefined) | inactive: -22% | –
7 | COc1cc(NC(=O)CCNC(=O)Cn2cnc3sc4c(c3c2=O)CCCC4)cc(OC)c1OC | inactive: -24.1% | –
8 | O=C1CC(Cc2ccccc2)C(=O)N1c1ccc(Cl)cn1 (centres undefined) | inactive: -9.76% | –
9 | O=C(COC(=O)/C=C/c1cccs1)Nc1ccc(F)cc1 | inactive: -29.6% | –
10 | CCc1ccc2c(c1)c(=O)c(C(=O)c1ccc(C)cc1)cn2CC(=O)Nc1ccccc1C | inactive: 65.3% | –
11 | COc1ccc(-c2ccc(SCC(=O)NCc3ccc4c(c3)OCO4)nn2)cc1OC | inactive: -27.2% | –
12 | Cc1cc(C)cc(C(=O)Nc2nnc(SCC(=O)NCC3CCCO3)s2)c1 (centres undefined) | inactive: -19.3% | –
13 | CCN1C(=O)C(CC(=O)NCCc2ccccc2)N(NC(=O)c2cccnc2)C1=S (centres undefined) | inactive: -6.95% | –
14 | CCOC(=O)N1CCC(NC(=O)Cc2ccccc2)CC1 | inactive: -2.97% | –
15 | CC(C)Oc1cccc(C(=O)C2CCCN(Cc3ccc4nonc4c3)C2)c1 (centres undefined) | inactive: -26.3% | –
16 | C=CCn1c(CNC(=O)c2ccccc2F)nnc1SCc1nc2ccccc2c(=O)[nH]1 | inactive: 1.75% | –
17 | OCCC1CN(CCCc2ccccc2)CCN1CCc1ccccc1 (centres undefined) | inactive: -19.8% | –
18 | CCCCc1nc2sc3c(=O)[nH]c(=S)[nH]c3c2c2c1CCC2 | inactive: -4.24% | –
19 | CCN(CC)Cc1c(O)c(Cl)cc2c(C)cc(=O)oc12 | inactive: -19.7% | –
20 | FC(F)(F)COc1cc(-c2nnc(SCc3ccccc3)n2Cc2ccco2)cc(OCC(F)(F)F)n1 | inactive: -22.1% | –
21 | CS(=O)(=O)NN1C(=O)c2ccccc2NC1c1cccc(O)c1 (centres undefined) | inactive: -27.5% | –
22 | O=C(COC(=O)c1ccc(F)cc1F)c1ccc[nH]1 | inactive: -3.98% | –
23 | Oc1ccc(NCc2ccccc2OCc2ccccc2F)cc1 | inactive: -22.7% | –

Reprinted: entries 11–14
Row | Structure (SMILES) | activity change, negative = inhibition | Potency
11 | COc1ccc(-c2ccc(SCC(=O)NCc3ccc4c(c3)OCO4)nn2)cc1OC | inactive: -27.2% | –
12 | Cc1cc(C)cc(C(=O)Nc2nnc(SCC(=O)NCC3CCCO3)s2)c1 (centres undefined) | inactive: -19.3% | –
13 | CCN1C(=O)C(CC(=O)NCCc2ccccc2)N(NC(=O)c2cccnc2)C1=S (centres undefined) | inactive: -6.95% | –
14 | CCOC(=O)N1CCC(NC(=O)Cc2ccccc2)CC1 | inactive: -2.97% | –

Next part:

Row | Structure (SMILES) | activity change, negative = inhibition | Potency
24 | Oc1ccc(N=Cc2sc3ccccc3c2Cl)cc1 | inactive: -29.8% | –
25 | c1ccc(Oc2ncnc3ccccc23)cc1 | inactive: -23.6% | –
26 | NS(=O)(=O)c1cccc(NC(=O)COC(=O)CSCc2ccccc2)c1 | inactive: -20.5% | –
27 | COc1cccc(C(=O)c2c(C)c(CCC#N)n3ccccc23)c1OC | inactive: -17.2% | –
28 | O=C(O)CC(CC(=O)N1CCOCC1)c1ccccc1 (centres undefined) | inactive: 8.86% | –
29 | COc1cccc(CCN2C(=O)C(=O)N([C@@H](CNCc3ccccc3)Cc3ccccc3F)C[C@@H]2C(C)(C)C)c1 | inactive: -9.66% | –
30 | O=C(NCCCN1CCOCC1)c1ccc(CSc2ccc(Cl)cc2)cc1 | inactive: -4.99% | –
31 | COc1ccc(C(=O)NCc2csc(C)n2)cc1OC1CCN(C(C)=O)CC1 | inactive: -15.2% | –
32 | Cc1ccc(NS(=O)(=O)c2ccc(NC(=O)c3ccccc3C(=O)O)cc2)cc1C | inactive: -25.4% | –
33 | Cc1ccc2sc(NNC(=O)c3ccc4c(c3)OCCO4)nc2c1C | inactive: -17.2% | –
34 | CN(CCO)C1=NS(=O)(=O)c2cc([N+](=O)[O-])ccc21 | – | active: 28.2 µM
35 | Cc1ccc(S(=O)(=O)N2CCOCC2)cc1NC(=O)CSc1nccn1C | inactive: -1.91% | –
36 | COc1ccccc1CN(C)C(=O)C(NC(=O)Cc1cccc2ccccc12)C(C)C (centres undefined) | inactive: -1.11% | –
37 | CCOc1ccccc1C1CC(c2ccc(Br)cc2)Nc2nc(N)nn21 (centres undefined) | inactive: -9.23% | –
38 | CCCC(=O)Nn1cnc2c(c1=O)C1(CCCCC1)Cc1ccccc1-2 | inactive: -1.01% | –
39 | O=C(c1ccccc1)N1C(=O)C(c2ccccc2)Oc2ccccc21 (centres undefined) | inactive: -6.05% | –
40 | CCCCCC(=O)NC(=S)Nc1cccc(-c2nc3ncccc3o2)c1 | inactive: -21.6% | –
41 | CC1(C)C2CCC1(CS(=O)(=O)Nc1ccccc1)C(=O)C2 (centres undefined) | inactive: -1.49% | –
42 | CC(=O)Nc1nnc(-c2c(-c3c(Cl)cccc3Cl)noc2C)o1 | inactive: -7.69% | –
43 | CCCCc1nn2c(=O)cc(COC(=O)c3ccccc3NC(=O)C(C)(C)C)nc2s1 | inactive: 6.1% | –
44 | Oc1ccc(NCc2cccc(OCc3ccccc3)c2)cc1 | inactive: -3.5% | –
45 | Cc1ccc2c(c1)N(CCC(=O)NC1CCCCC1)C(=O)CO2 | inactive: -26.9% | –
46 | c1ccc(-c2cc3ccccc3[nH]2)cc1 | inactive: -15.6% | –

Row | Structure (SMILES) | activity change, negative = inhibition | Potency
47 | Cc1cccc(NC(=O)c2cc3ccccc3nc2C)c1 | inactive: -27.3% | –
48 | CCCCn1c(N)c(N(CCOC)C(=O)c2ccc(S(=O)(=O)N3CCCCC3)cc2)c(=O)[nH]c1=O | inactive: 11.4% | –
49 | COc1ccc(-n2c(SCC(C)=O)nc3sc(C)c(C)c3c2=O)cc1 | inactive: 1.8% | –
50 | CCCCn1c(=O)[nH]c2nc3cc(N)ccc3nc2c1=O | – | active: 50.1 µM
51 | O=C(CCNC(=O)c1ccccc1Cl)NCCCSc1ccccc1 | inactive: 3.98% | –
52 | Cc1cccc(/C=N/NC(=O)NC23CC4CC(CC(C4)C2)C3)n1 | inactive: -19.3% | –
53 | CCN1CCCC(OC(=O)Nc2ccccc2)C1 (centres undefined) | inactive: -15.8% | –
54 | Cc1cc(C)c(S(=O)(=O)N2CCN(C(=O)N3CCOCC3)CC2)c(C)c1 | inactive: 1.33% | –
55 | Cc1ccc([C@@H]2C3COCC=C3C(C#N)=C(N)C2(C#N)C#N)o1 (some centres undefined) | inactive: -20.7% | –
56 | CC1(C)CC(=O)C2=C(C1)OC(=O)CC2c1cccs1 (centres undefined) | inactive: -7.69% | –
57 | CCOc1ccc(S(=O)(=O)N2CCC(C(=O)NCC3CCCO3)CC2)cc1C (centres undefined) | inactive: -18.4% | –
58 | Cc1ccc(NC(=O)CN2C(=O)C3CC=C(Cl)CC3C2=O)cc1 (centres undefined) | inactive: 4.35% | –
59 | Cc1cccc(CC(=O)NCCn2c(C)cc3ccccc32)c1 | inactive: -24% | –
60 | COc1ccc(COC(=O)C2=C(C)NC(=O)NC2c2ccccc2)cc1 (centres undefined) | inactive: -26.4% | –
61 | Cc1c(OC(C(=O)O)c2ccccc2)ccc2c(-c3ccccc3)cc(=O)oc12 (centres undefined) | inactive: -47.6% | –
62 | Cc1cccc(NC(=O)NCCCCc2ccccc2)c1 | inactive: -6.68% | –
63 | COc1ccc(/C=N/n2c(-c3n[nH]c4c3CCC4)n[nH]c2=S)cc1 | inactive: -20.7% | –
64 | CN1C(=O)NC(NC(=O)c2ccncc2)(C(F)(F)F)C1=O (centres undefined) | inactive: -2.39% | –
65 | CC(OC(=O)C1CCN(S(=O)(=O)c2ccccc2C(F)(F)F)CC1)C(=O)N(C)Cc1ccccc1 (centres undefined) | inactive: -18.5% | –
66 | COc1cccc(NC(=O)C2CCN(c3nn4cc(-c5ccc(F)cc5)nc4s3)CC2)c1 | inactive: 13.2% | –
67 | Cc1cc(C(C)(C)CC(C)(C)C)ccc1OCCOCC[N+](C)(C)Cc1ccccc1 | inactive: -7% | –
68 | CCc1cc(C(=O)OC)c(NC(=O)CN2CCN(C(=O)C3CCCO3)CC2)s1 (centres undefined) | inactive: 7.69% | –
69 | Cc1cccc(-n2c(CNC(=O)c3ccc(S(=O)(=O)N4CCCC4)cc3)n[nH]c2=S)c1 | inactive: -7.59% | –
